PubChem BioAssay AID1508597 | Cure First, 2020
Screen: 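Knock-downs altering ovarian cancer cell survival with or without PARP inhibitor rucaparib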 (primary screen). System: human ovarian carcinoma lines grown from tumours: OCI-P5x (papillary serous) and OCI-C5x (clear cell). Reagents: siRNA pool against human genes, 1.25 pmol siRNA per well. Time to read-out: 72 h or 96 h, depending on the cell culture. Challenge: rucaparib 20 µM (about IC30) or vehicle, present until read-out. Rucaparib or vehicle: Rucaparib. Cell line: OCI-C5x (clear cell). Measured: 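Luminescent ATP-based viability assay read 72 or 96 h after transfection, depending on culture, given as normalised percent viability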. Direction: viability, normalised: higher = more viable cells remaining. Rule for the call: 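a well counts as a hit if its normalised viability is under 80 percent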. Meaning of the calls: active = viability under 80%; inactive = viability 80% or more.
This is a random part of the about 2,100 reagents, under one of the conditions tested. 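Calls flag viability under 80% in either arm, not effects specific to rucaparib; the reference for percent is not stated.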 A number with no mark means an inactive call. Not stated in the record: the 100% reference.

MAP3K7 (mitogen-activated protein kinase kinase kinase 7), technical replicate 1 showed viability, normalised (%) = 78.3 (active). With MAP3K7 (mitogen-activated protein kinase kinase kinase 7), technical replicate 2 the deposit lists viability, normalised (%) = 59.4 (active). MAP3K7 (mitogen-activated protein kinase kinase kinase 7), technical replicate 3 scored viability, normalised (%) = 51.8 (active). For PAN3 (poly(A) specific ribonuclease subunit PAN3), technical replicate 1, the values are viability, normalised (%) = 74.7 (active). PAN3 (poly(A) specific ribonuclease subunit PAN3), technical replicate 2 gave viability, normalised (%) = 57.5 (active). PAN3 (poly(A) specific ribonuclease subunit PAN3), technical replicate 3 showed viability, normalised (%) = 70.1 (active).

Targets above whose target name begins with M or m (3):
MAP3K7 (mitogen-activated protein kinase kinase kinase 7), technical replicate 1: viability, normalised (%) = 78.3 (active)
MAP3K7 (mitogen-activated protein kinase kinase kinase 7), technical replicate 2: viability, normalised (%) = 59.4 (active)
MAP3K7 (mitogen-activated protein kinase kinase kinase 7), technical replicate 3: viability, normalised (%) = 51.8 (active)

Next entries follow.
With HSPA5 (heat shock protein family A (Hsp70) member 5), technical replicate 1 the deposit lists viability, normalised (%) = 23.6 (active). With HSPA5 (heat shock protein family A (Hsp70) member 5), technical replicate 2 the deposit lists viability, normalised (%) = 41.1 (active). For HSPA5 (heat shock protein family A (Hsp70) member 5), technical replicate 3, the entry reads viability, normalised (%) = 42.2 (active). RIOK1 (RIO kinase 1), technical replicate 1 showed viability, normalised (%) = 53.6 (active). With RIOK1 (RIO kinase 1), technical replicate 2, the entry reads viability, normalised (%) = 50.5 (active). RIOK1 (RIO kinase 1), technical replicate 3 showed viability, normalised (%) = 66 (active).
